{
  "sequences": {"note": "Protein sequences, listed by entry. Tags and fused reporters are not part of them. Lines headed by an entry give the natural chain unless they say otherwise; changes in a name come on top.", "UniProt P46063": "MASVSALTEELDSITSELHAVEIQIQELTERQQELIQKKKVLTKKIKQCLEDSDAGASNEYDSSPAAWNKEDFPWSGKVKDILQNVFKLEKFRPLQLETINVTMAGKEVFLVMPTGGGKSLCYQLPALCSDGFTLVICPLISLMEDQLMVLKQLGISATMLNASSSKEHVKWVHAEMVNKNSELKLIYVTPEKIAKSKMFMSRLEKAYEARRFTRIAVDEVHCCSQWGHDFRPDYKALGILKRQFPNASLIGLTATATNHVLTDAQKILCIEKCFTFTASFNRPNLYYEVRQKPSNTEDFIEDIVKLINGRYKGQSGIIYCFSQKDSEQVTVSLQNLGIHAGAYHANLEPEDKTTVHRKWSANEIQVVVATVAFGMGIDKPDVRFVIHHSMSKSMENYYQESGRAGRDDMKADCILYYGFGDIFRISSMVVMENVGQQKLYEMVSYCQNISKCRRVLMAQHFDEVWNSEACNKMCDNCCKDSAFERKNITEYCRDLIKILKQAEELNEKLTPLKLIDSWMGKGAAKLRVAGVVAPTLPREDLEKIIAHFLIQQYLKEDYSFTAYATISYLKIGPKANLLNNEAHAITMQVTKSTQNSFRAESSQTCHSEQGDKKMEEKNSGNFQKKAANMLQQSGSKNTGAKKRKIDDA"},
  "source": "PubChem BioAssay AID2549",
  "about": "(National Center for Advancing Translational Sciences (NCATS), 2010)",
  "note": "Hit rate of the full screen: of about 240,000 compounds, about 1,300 (0.54%) were called active. The shares of active, inactive and inconclusive entries below differ from those in the screen. Calls follow the shape of the dose curve; as a rule, active = well fitted inhibition curve with a large enough effect; inconclusive = small, poorly fitted or top-dose-only effect; inactive = flat fitted curve, though single readings scatter. Potencies beside an inconclusive call are fits to weak or partial responses and may not hold up.",
  "data": [
    {"biological_target": "ATP-dependent DNA helicase Q1 (Homo sapiens) (UniProt P46063)", "assay": "qHTS Assay for Inhibitors of RecQ-Like Dna Helicase 1 (RECQ1); also: nearly all actives have a fitted effect of over 30% in size; also: potency is read from the fitted curve at half-maximal effect;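 as to activity, negative = inhibition: plate controls were vehicle for no effect and no enzyme for full effect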", "conditions": "RECQ1 DNA unwinding, red fluorescence kinetic read; activity, negative = inhibition: at 57.3 µM (top of the series); series mostly up to 57.3 µM", "how_it_was_run": "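50 nM RECQ1T1 preincubated 15 min with compound in Tris pH 8.0 buffer with MgCl2, DTT, Tween-20 and 2.5 ug/ml poly(dI-dC); started with 200 nM TAMRA/BHQ-2 forked duplex and 2 mM ATP. Unwinding read as fluorescence (525/598 nm), two reads 2 h apart.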", "values": [
      {"compound": "O=c1cc(-c2ccc(O)cc2)oc2cc(O)c(C3OC(CO)C(O)C(O)C3O)c(O)c12", "note": "(stereo not drawn)", "Potency": "inconclusive: 35.5 µM [inhibitor, single point]"},
      {"compound": "C=CCn1c(SCC(=O)N2CCCC2)nc2cc(C(=O)NCC3CCCO3)ccc2c1=O", "note": "(stereo not drawn)", "Potency": "inconclusive: 39.8 µM [inhibitor, single point]"},
      {"compound": "Cc1ccc(NC(=O)CSc2nc(N)cc(=O)[nH]2)cc1Cl", "Potency": "inactive"},
      {"compound": "COc1cc(/C=C/C(=O)c2c(O)cc(C)oc2=O)cc(OC)c1O", "Potency": "inconclusive: 39.8 µM [inhibitor, single point]"},
      {"compound": "C[C@@H]1CC=C[C@H]2[C@H]1C(=O)N(Cc1ccccc1)[C@H]2c1ccc(-c2ccoc2)cc1F", "Potency": "inconclusive: 0.158 µM [inhibitor, full curve, poor fit]"},
      {"compound": "CSc1nc(N(C)CCO)c2sc3nc(-c4ccco4)c4c(c3c2n1)CCC4", "Potency": "inconclusive: 4.47 µM [inhibitor, full curve]"},
      {"compound": "Nc1c(C(=O)Nc2ccc(F)cc2)sc2nc(-c3ccco3)ccc12", "Potency": "active: 22.4 µM"},
      {"compound": "COc1ccc(-n2c(SCC(=O)Nc3cc(C)on3)nc3ccccc3c2=O)cc1Cl", "Potency": "inactive"},
      {"compound": "CCOc1ccc(-c2csc(N)c2C(=O)OC)cc1", "Potency": "inconclusive: 31.6 µM [inhibitor, single point]"},
      {"compound": "Cc1cc(C)cc(NC(=O)COC(=O)CCCC2=NS(=O)(=O)c3ccccc3N2)c1", "Potency": "inconclusive: 0.282 µM [inhibitor, full curve, poor fit]"},
      {"compound": "O=c1c(-c2ccc(Cl)cc2)[n+]([O-])c2ccccc2n1OCc1nc2ccccc2[nH]1", "Potency": "inconclusive: 22.4 µM [inhibitor, single point]"},
      {"compound": "COc1ccc(/C=C(/C#N)c2cccnc2)cc1OC", "Potency": "inconclusive: 0.224 µM [inhibitor, full curve]"},
      {"compound": "C(=N\\NC1=Nc2cccc3cccc1c23)/c1cccnc1", "Potency": "inconclusive: 39.8 µM [inhibitor, partial curve]"},
      {"compound": "C=CCN1c2ccccc2[C@]23C[C@@H](C(=O)OC)N(C(=O)OCC)C2=NC(C(=O)OC)=C(C(=O)OC)[C@H]13", "Potency": "inconclusive: 2.82 µM [inhibitor, partial curve]"},
      {"compound": "COC(=O)CCCC1=CC2=CC(=O)C(C)(OC(=O)CCc3ccccc3)C(=O)C2=CO1", "note": "(stereo not drawn)", "Potency": "inconclusive: 25.1 µM [inhibitor, single point]"},
      {"compound": "CCOc1ccc(/C=C2/SC(=S)N(C(C(=O)O)c3ccccc3)C2=O)cc1OCC", "note": "(stereo not drawn)", "Potency": "active: 22.4 µM"},
      {"compound": "Cc1cc2nc(-c3ccc(SCc4ccc(C#N)cc4)nc3)[nH]c2cc1C", "Potency": "inconclusive: 4.47 µM [inhibitor, full curve]"},
      {"compound": "CN1CC(=O)N(CC(=O)Nc2cc(Cl)cc(Cl)c2)C1=O", "Potency": "inconclusive: 39.8 µM [inhibitor, single point]"},
      {"compound": "CC1(C)CC(=O)C(CC(=O)N2CCC(Cc3ccccc3)CC2)C(=O)C1", "Potency": "inconclusive: 0.891 µM [inhibitor, full curve, poor fit]"},
      {"compound": "O=C(O)/C=C/c1cccc(NC(=O)c2ccccc2)c1", "Potency": "inactive"},
      {"compound": "CCN(CC)S(=O)(=O)c1ccc(N=NC2=C(O)CCCC2=O)cc1", "Potency": "inconclusive: 28.2 µM [inhibitor, single point]"},
      {"compound": "CCCCCc1c2c(cc(O)c1C(=O)O)OC(=O)c1cc(C(=O)CCCC)c(OC)cc1O2", "Potency": "active: 12.6 µM"},
      {"compound": "C/C(=N\\NC(=O)CSCc1ccc([N+](=O)[O-])cc1)c1cccc(Br)c1", "Potency": "active: 1 µM"},
      {"compound": "CCOC(=O)c1cnc(-n2nc(C)cc2C)nc1Nc1cccc(C(=O)O)c1", "Potency": "inconclusive: 0.447 µM [inhibitor, partial curve, poor fit]"},
      {"compound": "Nc1cc2c3c(cccc3c1)C(=O)N(CCN1CCCC1)C2=O", "Potency": "inconclusive: 39.8 µM [inhibitor, single point]"},
      {"compound": "Cc1ccc(/C=C2/NC(=O)N(Cc3ccccc3)C2=O)o1", "Potency": "inactive"},
      {"compound": "O=[N+]([O-])c1cc(F)c2cccnc2c1O", "Potency": "inconclusive: 39.8 µM [inhibitor, single point]"},
      {"compound": "O=C1OC(c2ccc(Cl)cc2)=N/C1=C\\C=C\\c1ccco1", "Potency": "inconclusive: 35.5 µM [inhibitor, single point]"},
      {"compound": "O=C(/C=C/c1ccc(I)cc1)c1ccc(B(O)O)cc1", "Potency": "inactive"},
      {"compound": "Cc1ccc2nc(NCc3ccco3)c(C=NCc3ccco3)c(=O)n2c1", "Potency": "inconclusive: 25.1 µM [inhibitor, single point]"},
      {"compound": "O=C(c1ccncc1)N1CCN(C2CCC(c3ccccc3)CC2)CC1", "note": "(stereo not drawn)", "Potency": "inconclusive: 35.5 µM [inhibitor, single point]"},
      {"compound": "CCC(=O)Nc1cc(-c2nn(C)c(=O)c3ccccc23)ccc1N1CCCCC1", "Potency": "inconclusive: 7.08 µM [inhibitor, partial curve]"},
      {"compound": "C[C@@H](C(=O)Nc1ccc2ccccc2c1)[C@H]1C[C@]1(C)[C@H](NS(=O)(=O)c1ccc2ccccc2c1)c1ccccc1", "Potency": "inactive"},
      {"compound": "COc1c(O)c2c(=O)cc(OC)c3c4c(OC)cc(=O)c5c(O)c(OC)c6c(c(c1C[C@@](C)(O)[C@H]6C(C)=O)c23)c54", "Potency": "inconclusive: 25.1 µM [inhibitor, partial curve]"},
      {"compound": "COc1ccccc1N1CSC2=C(C#N)C(c3ccc(SC)cc3)CC(=O)N2C1", "note": "(stereo not drawn)", "Potency": "inconclusive: 39.8 µM [inhibitor, single point]"},
      {"compound": "CCN1/C(=C/c2cc[n+](CCCS(=O)(=O)[O-])c3ccccc23)Sc2ccccc21", "Potency": "inconclusive: 35.5 µM [inhibitor, single point]"},
      {"compound": "COc1ccc(NS(=O)(=O)c2ccc(O)c(NC(=O)c3cc4c(C)nn(-c5ccc(F)cc5)c4s3)c2)cc1", "Potency": "inconclusive: 28.2 µM [inhibitor, single point]"},
      {"compound": "O=C(c1cc2c(s1)CCC2)N1CCN(c2ccccc2)CC1", "Potency": "active: 11.2 µM"},
      {"compound": "O=[N+]([O-])c1cc(/C=N/n2c(-c3ccncc3)n[nH]c2=S)ccc1Cl", "Potency": "active: 4.47 µM"},
      {"compound": "Cn1cccc1C(=O)OCC(=O)NC(=O)NC1CCCCC1", "Potency": "inconclusive: 39.8 µM [inhibitor, single point]"},
      {"compound": "O[N+]1=CC=CCC1=S.On1ccccc1=S.[Zn]", "Potency": "inactive"},
      {"compound": "COc1ccc(Br)cc1CNc1ccc2[nH]c(=O)[nH]c2c1", "Potency": "inactive"},
      {"compound": "Cc1ccc(S(=O)(=O)Nc2csc(C)c2C(=O)O)cc1", "Potency": "inconclusive: 15.8 µM [inhibitor, single point]"},
      {"compound": "CCOC(=O)c1c(CSc2ccccc2)oc2cc(Br)c(O)c(CN(C)C)c12", "Potency": "inconclusive: 0.141 µM [inhibitor, partial curve, poor fit]"},
      {"compound": "COC(=O)c1cccc(NC(=O)CSc2nc(C)cc(=O)[nH]2)c1", "activity, negative = inhibition": "inconclusive: -30.2% [inhibitor]"},
      {"compound": "O=C(O)c1ccc2c(=O)[nH]c(CCl)nc2c1", "Potency": "inconclusive: 3.16 µM [inhibitor, partial curve]"},
      {"compound": "COc1ccc(O)c(/C=N/Nc2nc3ccccc3[nH]2)c1", "Potency": "inconclusive: 35.5 µM [inhibitor, single point]"},
      {"compound": "N#Cc1cc(Sc2ccccn2)c([N+](=O)[O-])cc1C#N", "Potency": "inconclusive: 39.8 µM [inhibitor, partial curve, poor fit]"},
      {"compound": "COc1ccc2c(c1)CC/C(=C\\c1ccc(OC)c(Cn3nc(C)cc3C)c1)C2=O", "Potency": "active: 35.5 µM"},
      {"compound": "CCN(CC)S(=O)(=O)c1ccc(OC)c(NC(=S)Nc2cccc(C)c2C)c1", "Potency": "inconclusive: 39.8 µM [inhibitor, partial curve]"},
      {"compound": "Cc1c(C(=O)NCc2ccc3c(c2)OCO3)oc2ccc(S(=O)(=O)N3CCCC3)cc12", "Potency": "inactive"},
      {"compound": "Cc1ccc(/C=C2/C(=O)c3ccc(C(=O)O)cc3C2=O)o1", "Potency": "active: 7.08 µM"},
      {"compound": "Cc1cccc(-c2cc(=O)c3cc(Br)ccc3o2)c1", "Potency": "inconclusive: 4.47 µM [inhibitor, partial curve, poor fit]"},
      {"compound": "COCCCN(C(=O)c1cc2c(s1)CCC2)c1c(N)n(Cc2ccccc2)c(=O)[nH]c1=O", "Potency": "active: 14.1 µM"},
      {"compound": "CN1N=C(C(C)(C)C)CC1=O", "Potency": "inconclusive: 39.8 µM [inhibitor, single point]"},
      {"compound": "Cn1c(SCC(=O)Nc2ccc3nc(SCC(=O)N4CCCC4)sc3c2)nnc1-c1ccccc1", "Potency": "inconclusive: 15.8 µM [inhibitor, partial curve]"},
      {"compound": "CCSc1ccc2cc(OC)ccc2[n+]1CC", "Potency": "inactive"},
      {"compound": "Cc1ccc(S(=O)(=O)NC2=NCN(CCOC(=O)c3ccccc3)CN2)cc1", "Potency": "active: 31.6 µM"},
      {"compound": "COc1cc(N2CCCC2)c(OC)cc1/C=C(/C#N)c1cccc(F)c1", "Potency": "active: 3.98 µM"},
      {"compound": "Cc1cccc(C(=O)Nc2nnc(SCC(=O)Nc3ccc4c(c3)oc3ccccc34)s2)c1", "Potency": "inactive"},
      {"compound": "CC(=O)NCCNc1ncncc1-c1ccccc1C", "Potency": "inactive"},
      {"compound": "Cc1ccc(NC(=O)CSc2nc(NS(=O)(=O)c3ccccc3)cc(=O)[nH]2)cc1", "Potency": "inconclusive: 35.5 µM [inhibitor, single point]"},
      {"compound": "COc1ccc(OC)c(S(=O)(=O)N2CCN(c3c(C)cccc3C)CC2)c1", "Potency": "inconclusive: 1.41 µM [inhibitor, full curve]"},
      {"compound": "COc1ccc(-c2nnc3n2N=C(c2ccc(OC)c(OC)c2)CS3)c(OC)c1", "Potency": "inactive"},
      {"compound": "CCCn1c(SCC(=O)N2c3ccccc3Sc3ccccc32)nc2c1c(=O)n(C)c(=O)n2C", "Potency": "inactive"},
      {"compound": "COC(=O)c1cc(COC(=O)c2nc3nccc(C)n3n2)oc1C", "Potency": "inconclusive: 20 µM [inhibitor, partial curve]"},
      {"compound": "COc1ccc(/C(N)=N/OC(=O)CCCc2ccccc2)cc1", "Potency": "inconclusive: 39.8 µM [inhibitor, single point]"},
      {"compound": "COc1ccccc1/C=C/C(=O)Nc1ccc2c(c1)CCC2", "Potency": "inconclusive: 8.91 µM [inhibitor, full curve, poor fit]"}
    ]}
  ]
}
